# From PubChem BioAssay AID248 (DTP/NCI, 2004)
# The list is a part of this screen's results and no random one: it gathers tests that were run many times, whatever their T/C, doses with no T/C, and many T/C values between a quarter and a half above the control. Further doses and runs are listed elsewhere. T/C is the treated group as % of the vehicle group. Some entries give survivors of the animals treated and no T/C: the source holds a T/C of zero for them, seemingly a mark for toxic or unscored doses. Some doses without a T/C left all or most animals alive at the check, yet need not have been tolerated: the source hardly ever lists a survival T/C far under the control, and the zero likely stands for such cases as well. Counts of survivors are from the toxicity check (mostly the fifth day) where no day follows; animals may have died later. Schedule codes are those of the source, read here as Q, the interval in days (D) or hours (H), X, the number of doses. Some entries were tested several times; their values stand side by side, smallest first. Some schedules carry Z or #; the key to these is not given. Some structures stand for samples that the source files as different forms (salt, stereo form or complex); doses refer to the form tested. For survival time, this PubChem deposit counts one and a half times the control or more as active, and values a quarter to a half above the control carry no call in these data; other NCI protocols may use other cut-offs. Counts like (3×) say how often a value occurs here. Some T/C values carry the count of animals alive at the toxicity check (mostly the fifth day); where none is given, no animal had died by that day.
# System: L1210 leukemia ip in BDF1 mice, survival T/C
# Experiment: NCI In Vivo Anticancer Drug Screen. Data for tumor model L1210 Leukemia (intraperitoneal) in B6D2F1 (BDF1) mice
# Conditions: T/C endpoint: mean survival time, higher T/C = longer survival
# [1] = dose: 400.0 mg/kg/injection, schedule: Q04DX003 (ip), vehicle: saline
# [2] = dose: 75.0 mg/kg/injection, schedule: Q01DX001 (ip), vehicle: saline
# [3] = dose: 150.0 mg/kg/injection, schedule: Q01DX001 (ip), vehicle: saline
# [4] = dose: 300.0 mg/kg/injection, schedule: Q01DX001 (ip), vehicle: saline
# [5] = dose: 12.5 mg/kg/injection, schedule: Q01DX009 (ip), vehicle: saline
# [6] = dose: 25.0 mg/kg/injection, schedule: Q01DX009 (ip), vehicle: saline with Tween-80
# [7] = dose: 50.0 mg/kg/injection, schedule: Q01DX001 (ip), vehicle: saline
# [8] = dose: 50.0 mg/kg/injection, schedule: Q01DX009 (ip), vehicle: saline with Tween-80
# [9] = dose: 200.0 mg/kg/injection, schedule: Q01DX001 (ip), vehicle: saline
# [10] = dose: 400.0 mg/kg/injection, schedule: Q01DX001 (ip), vehicle: saline
# [11] = dose: 400.0 mg/kg/injection, schedule: Q04DX003 (ip), vehicle: Klucel (hydroxypropylcellulose) (HPC)
# [12] = dose: 100.0 mg/kg/injection, schedule: Q01DX009 (ip), vehicle: saline with Tween-80
# [13] = dose: 200.0 mg/kg/injection, schedule: Q01DX009 (ip), vehicle: saline with Tween-80
# [14] = dose: 100.0 mg/kg/injection, schedule: Q01DX009 (ip), vehicle: carboxymethylcellulose (CMC)
# [15] = dose: 200.0 mg/kg/injection, schedule: Q01DX009 (ip), vehicle: carboxymethylcellulose (CMC)
smiles,measurement,setting,value
O=C(Cl)OCC(Cl)(Cl)Cl,survivor count,"dose: 400.0 mg/kg/injection, schedule: Q01DX009 (ip), vehicle: Klucel (hydroxypropylcellulose) (HPC)",0 of 6
CC(C)CC(NC(=O)c1ccccc1)C(N)=O (stereo not given),survivor count,"dose: 400.0 mg/kg/injection, schedule: Q01DX009 (ip), vehicle: saline with Tween-80",6 of 6
CCCCCCOC(=O)/C=C(/C)OCCCCCC,survivor count,[1],5 of 6
CC1=C(Cl)C(=O)C(C)=C(Cl)C1=O,survivor count,[2],2 of 6
same,survivor count,[3],0 of 6
same,survivor count,[4],0 of 6
O=C(Nc1c(Oc2ccc(Cl)cc2)ccc(Cl)c1S(=O)(=O)O)Nc1c(Oc2ccc(Cl)cc2)ccc(Cl)c1S(=O)(=O)O,survivor count,"dose: 200.0 mg/kg/injection, schedule: Q01DX001 (ip), vehicle: acetone",6 of 6
same,survivor count,[1],0 of 6
COc1cc(NS(C)(=O)=O)ccc1N,survivor count,"dose: 400.0 mg/kg/injection, schedule: Q01DX009 (ip), vehicle: saline",1 of 6
Cc1ccc(S(=O)(=O)/C(Cl)=C(/Cl)S(=O)(=O)c2ccc(C)cc2)cc1,survivor count,"dose: 12.5 mg/kg/injection, schedule: Q01DX009 (ip), vehicle: saline with Tween-80",6 of 6
same,survivor count,[5],0 of 6
same,survivor count,[6],6 of 6
same,survivor count,"dose: 25.0 mg/kg/injection, schedule: Q04DX003 (ip), vehicle: saline",5 of 6
same,survivor count,[7],0 of 6
same,survivor count,[8],3 of 6 and 6 of 6
same,survivor count,"dose: 100.0 mg/kg/injection, schedule: Q01DX001 (ip), vehicle: saline",0 of 6 and 1 of 6
same,survivor count,"dose: 100.0 mg/kg/injection, schedule: Q04DX003 (ip), vehicle: Klucel (hydroxypropylcellulose) (HPC)",5 of 6
same,survivor count,[9],1 of 6
same,survivor count,"dose: 200.0 mg/kg/injection, schedule: Q04DX003 (ip), vehicle: Klucel (hydroxypropylcellulose) (HPC)",1 of 6
same,survivor count,[10],0 of 6
same,survivor count,[11],0 of 6
O=NN(CCCl)C(=O)NC1CCC(CC2CCC(NC(=O)N(CCCl)N=O)CC2)CC1 (stereo not given),T/C,"dose: 23.0 mg/kg/injection, schedule: Q01DX001 (ip), vehicle: gum acacia",138 % of control
C/C=C/C[P+](c1ccccc1)(c1ccccc1)c1ccccc1,survivor count,[6],0 of 3
same,survivor count,[8],0 of 3 and 1 of 3
same,survivor count,"dose: 60.0 mg/kg/injection, schedule: Q01DX001 (ip), vehicle: saline",0 of 6
same,survivor count,[2],1 of 6
same,survivor count,[12],0 of 3
same,survivor count,[3],0 of 6
same,survivor count,[13],0 of 3
same,survivor count,[4],0 of 6
O=[N+]([O-])c1cc(C(F)(F)F)cc([N+](=O)[O-])c1N/N=C/c1ccc(Cl)cc1,T/C,"dose: 50.0 mg/kg/injection, schedule: Q01DX009 (ip), vehicle: carboxymethylcellulose (CMC)","87 (2×), 88, 104 % of control"
same,T/C,[14],"93, 96, 97 % of control"
same,survivor count,[14],6 of 6
same,T/C,[15],90 and 95 % of control
same,survivor count,[15],3 of 3 and 6 of 6
Cc1cc([N+](=O)[O-])c2ccccc2[n+]1[O-],survivor count,[8],5 of 6
same,survivor count,[12],2 of 6
O=C(O)c1c(Cl)c(Cl)c(Cl)c(C(=O)O)c1Cl,survivor count,[11],3 of 6
NCc1ccc(NC(=O)c2ccc(C(=O)Nc3ccc(CN)cc3)c(N)c2)cc1,survivor count,"dose: 84.0 mg/kg/injection, schedule: Q01DX Z (ip), vehicle: water",0 of 6
same,survivor count,"dose: 168.0 mg/kg/injection, schedule: Q01DX Z (ip), vehicle: water",0 of 6
O=c1[nH]c(=O)c2nccnc2[nH]1,survivor count,"dose: 400.0 mg/kg/injection, schedule: Q01DX009 (ip), vehicle: water",1 of 6
N=C(N)c1ccc(NC(=O)c2ccc(C(=O)Nc3ccc(C(=N)N)cc3)c(N)c2)cc1,T/C,"dose: 250.0 mg/kg/injection, schedule: Q01DX Z (ip), vehicle: carboxymethylcellulose (CMC)",128 % of control
CCCCCN1C(=O)NC(=O)C(Cl)C1=O (stereo not given),survivor count,[9],1 of 6
same,survivor count,[10],0 of 6
O=C(C#Cc1ccccc1)[O][Sn]([c]1ccccc1)([c]1ccccc1)[c]1ccccc1,survivor count,[5],1 of 6
same,survivor count,"dose: 25.0 mg/kg/injection, schedule: Q01DX009 (ip), vehicle: saline",0 of 6
same,survivor count,"dose: 50.0 mg/kg/injection, schedule: Q01DX009 (ip), vehicle: saline",0 of 6
same,survivor count,"dose: 100.0 mg/kg/injection, schedule: Q01DX009 (ip), vehicle: saline",0 of 6
same,survivor count,"dose: 100.0 mg/kg/injection, schedule: Q04DX002 (ip), vehicle: saline",2 of 3
same,survivor count,"dose: 200.0 mg/kg/injection, schedule: Q04DX002 (ip), vehicle: saline",0 of 3
same,survivor count,"dose: 400.0 mg/kg/injection, schedule: Q04DX002 (ip), vehicle: saline",0 of 3
CC(=O)c1ccccc1Br,survivor count,"dose: 100.0 mg/kg/injection, schedule: Q01DX009 (ip), vehicle: Klucel (hydroxypropylcellulose) (HPC)",6 of 6
OCC1CCCN2CCCCC12 (stereo not given),survivor count,[1],0 of 6
O=NN(CCCl)C(=O)NC1[C@H](O)CCC[C@@H]1O (stereo not given in full),T/C,"dose: 33.0 mg/kg/injection, schedule: Q01DX001 (ip), vehicle: saline, evaluated on day 30",145 % of control
same,T/C,"dose: 33.0 mg/kg/injection, schedule: Q01DX001 (ip), vehicle: saline, evaluated on day 45",134 % of control [8 of 10 alive]
same,survivor count,[7],10 of 10
same,survivor count,[2],9 of 10
same,survivor count,"dose: 112.0 mg/kg/injection, schedule: Q01DX001 (ip), vehicle: saline",8 of 10
same,survivor count,"dose: 168.0 mg/kg/injection, schedule: Q01DX001 (ip), vehicle: saline",1 of 10
CCN(CC)c1ccc(N=Nc2ccc(S(=O)(=O)O)cc2)cc1,survivor count,[9],4 of 6
same,survivor count,[10],0 of 6
CNC(=N)c1ccc(NC(=N)c2ccc(NC(=N)c3ccc(NC(=O)Nc4ccc(C#N)cc4)cc3)cc2)cc1,T/C,"dose: 6.5 mg/kg/injection, schedule: Q01DX015 (ip), vehicle: water",128 % of control
same,T/C,"dose: 32.5 mg/kg/injection, schedule: Q01DX001 (ip), vehicle: water",128 % of control
same,T/C,"dose: 40.0 mg/kg/injection, schedule: Q01DX001 (ip), vehicle: water",126 % of control
same,survivor count,"dose: 68.0 mg/kg/injection, schedule: Q01DX Z (ip), vehicle: water",0 of 6
same,survivor count,"dose: 136.0 mg/kg/injection, schedule: Q01DX Z (ip), vehicle: water",0 of 6
CCCC(NC)C(CC)CN (stereo not given),T/C,"dose: 100.0 mg/kg/injection, schedule: Q01DX001 (ip), vehicle: carboxymethylcellulose (CMC)",143 % of control
same,survivor count,[4],0 of 6 and 1 of 4
same,survivor count,"dose: 400.0 mg/kg/injection, schedule: Q01DX001 (ip), vehicle: carboxymethylcellulose (CMC)",0 of 6 and 1 of 6
O=C(NCCNC(c1ccccc1)C(NCCNC(=O)c1ccccc1)c1ccccc1)c1ccccc1 (stereo not given),survivor count,[13],6 of 6
NNc1cnc2ccccc2n1,survivor count,"dose: 200.0 mg/kg/injection, schedule: Q01DX009 (ip), vehicle: saline sonified",5 of 6
same,survivor count,"dose: 400.0 mg/kg/injection, schedule: Q01DX009 (ip), vehicle: saline sonified",5 of 6
CC1=NN(c2ccccc2)C(=O)C1C(=O)c1ccccc1 (stereo not given),survivor count,[12],1 of 6
same,survivor count,"dose: 200.0 mg/kg/injection, schedule: Q04DX003 (ip), vehicle: saline with Tween-80",1 of 6
same,survivor count,"dose: 400.0 mg/kg/injection, schedule: Q04DX003 (ip), vehicle: saline with Tween-80",0 of 6
